Source: PubChem BioAssay AID248 (DTP/NCI, 2004)
The list does not hold the whole screen: it is rich in T/C values a quarter to a half above the control, in often repeated tests (any T/C) and in doses without a T/C. Other doses and runs of a compound stand elsewhere. T/C gives the treated animals as a percentage of the vehicle group. Some entries give survivors of the animals treated and no T/C: the source holds a T/C of zero for them, seemingly a mark for toxic or unscored doses. Some survivor counts are full or nearly so, which does not show that the dose was tolerated: the source hardly ever lists a survival T/C far under the control, and the zero likely stands for such cases as well. Survivors were counted at the toxicity check, usually on the fifth day, unless a day is given; later deaths do not show. Schedules are NCI's codes, read here as Q, the interval in days (D) or hours (H), X, the number of doses. Where survival is the endpoint, this PubChem deposit counts one and a half times the control or more as active, and values a quarter to a half above the control carry no call in these data; other NCI protocols may use other cut-offs.

Tested on: L1210 leukemia ip in BDF1 mice, survival T/C
Assay: NCI In Vivo Anticancer Drug Screen. Data for tumor model L1210 Leukemia (intraperitoneal) in B6D2F1 (BDF1) mice
Settings: T/C endpoint: mean survival time, higher T/C = longer survival
[1] = dose: 400.0 mg/kg/injection, schedule: Q01DX009 (ip), vehicle: saline with Tween-80
[2] = dose: 300.0 mg/kg/injection, schedule: Q01DX001 (ip), vehicle: saline
[3] = dose: 400.0 mg/kg/injection, schedule: Q04DX003 (ip), vehicle: Klucel (hydroxypropylcellulose) (HPC)

With `Cc1ccc(NC(=O)NCCCCCCNC(=O)Nc2ccc(C)c(Cl)c2)cc1Cl` the survivor count (dose: 100.0 mg/kg/injection, schedule: Q01DX009 (ip), vehicle: saline with Tween-80) was 6 of 6 and the survivor count [1] was 5 of 6.

With `CC(C)(C)/C=N/NP(Br)(c1ccccc1)(c1ccccc1)c1ccccc1` the survivor count (dose: 75.0 mg/kg/injection, schedule: Q01DX001 (ip), vehicle: saline) was 0 of 6, the survivor count (dose: 150.0 mg/kg/injection, schedule: Q01DX001 (ip), vehicle: saline) was 0 of 6 and the survivor count [2] was 0 of 6.

In the case of `COc1ccc2c(c1O)[C@]13CCN(C)[C@H](C2)[C@@H]1CCC(=O)C3`, the survivor count [2] is reported as 0 of 6.

With `Cc1n(Cc2ccccc2)c2c([n+]1C)C(=O)c1ccccc1C2=O` the survivor count (dose: 5.0 mg/kg/injection, schedule: Q01DX001 (ip), vehicle: saline) was 0 of 4, the survivor count (dose: 8.0 mg/kg/injection, schedule: Q01DX001 (ip), vehicle: saline) was 0 of 4 and the survivor count (dose: 10.0 mg/kg/injection, schedule: Q01DX001 (ip), vehicle: saline) was 0 of 4. The survivor count (dose: 20.0 mg/kg/injection, schedule: Q01DX001 (ip), vehicle: saline) was 0 of 4, the survivor count (dose: 40.0 mg/kg/injection, schedule: Q01DX001 (ip), vehicle: saline) was 0 of 4 and the survivor count (dose: 50.0 mg/kg/injection, schedule: Q01DX001 (ip), vehicle: saline) was 0 of 4. For the same compound, the survivor count (dose: 80.0 mg/kg/injection, schedule: Q01DX001 (ip), vehicle: saline) was 0 of 4, the survivor count (dose: 100.0 mg/kg/injection, schedule: Q01DX001 (ip), vehicle: saline) was 0 of 4 and the survivor count (dose: 200.0 mg/kg/injection, schedule: Q01DX001 (ip), vehicle: saline) was 0 of 4. For the same compound, the survivor count (dose: 400.0 mg/kg/injection, schedule: Q01DX001 (ip), vehicle: saline) was 0 of 4.

In the case of `Cc1ccc([N+](=O)[O-])cc1NC(=O)Nc1ccc(CCO)cc1`, the survivor count (dose: 400.0 mg/kg/injection, schedule: Q01DX009 (ip), vehicle: Klucel (hydroxypropylcellulose) (HPC)) is reported as 5 of 6.

In the case of `COC(=O)c1ccc[n+](Cc2c(Cl)cccc2Cl)c1`, the survivor count [2] is reported as 2 of 6.

For `O=C(O)c1ccccc1Br`, the survivor count (dose: 400.0 mg/kg/injection, schedule: Q04DX002 (ip), vehicle: saline with Tween-80) was 3 of 3.

With `COc1cc2c(c(OC)c1OC)-c1ccc(OC)c(=O)cc1[C@@H](NC=O)CC2` the T/C (dose: 1.0 mg/kg/injection, schedule: Q01DX009 (ip), vehicle: Klucel (hydroxypropylcellulose) (HPC)) was 133 % of control, the T/C (dose: 1.5 mg/kg/injection, schedule: Q01DX015 (ip), vehicle: carboxymethylcellulose (CMC)) was 125 % of control and the survivor count (dose: 2.0 mg/kg/injection, schedule: Q01DX009 (ip), vehicle: Klucel (hydroxypropylcellulose) (HPC)) was 3 of 6. The survivor count (dose: 4.0 mg/kg/injection, schedule: Q01DX009 (ip), vehicle: Klucel (hydroxypropylcellulose) (HPC)) was 0 of 6, the survivor count (dose: 8.0 mg/kg/injection, schedule: Q01DX009 (ip), vehicle: Klucel (hydroxypropylcellulose) (HPC)) was 0 of 6 and the survivor count (dose: 50.0 mg/kg/injection, schedule: Q04DX003 (ip), vehicle: Klucel (hydroxypropylcellulose) (HPC)) was 2 of 6. For the same compound, the survivor count (dose: 100.0 mg/kg/injection, schedule: Q04DX003 (ip), vehicle: Klucel (hydroxypropylcellulose) (HPC)) was 0 of 6, the survivor count (dose: 200.0 mg/kg/injection, schedule: Q04DX003 (ip), vehicle: Klucel (hydroxypropylcellulose) (HPC)) was 0 of 6 and the survivor count [3] was 0 of 6.

`NP(=O)(OCCCOCc1ccccc1)N(CCCl)CCCl` (configuration not stated) was tested, and the survivor count (dose: 1000.0 mg/kg/injection, schedule: Q01DX001 (ip), vehicle: saline) was 2 of 6.

For `O=C(Nc1ccc(C(=O)O)cc1)Nc1cccc(F)c1`, the survivor count (dose: 200.0 mg/kg/injection, schedule: Q01DX009 (ip), vehicle: Klucel (hydroxypropylcellulose) (HPC)) was 3 of 6 and the survivor count (dose: 400.0 mg/kg/injection, schedule: Q04DX002 (ip), vehicle: Klucel (hydroxypropylcellulose) (HPC)) was 0 of 3.

In the case of `CC(C)(SCc1ccccc1)C(N)C(=O)O` (configuration not stated), the survivor count [2] is reported as 0 of 6.

`NC(=O)NN=C1COC(c2ccccc2)OC1` (configuration not stated) was tested, and the survivor count (dose: 200.0 mg/kg/injection, schedule: Q01DX009 (ip), vehicle: saline) was 4 of 6 and the survivor count (dose: 400.0 mg/kg/injection, schedule: Q04DX003 (ip), vehicle: saline) was 0 of 6.

`COc1ccc(/C(C#N)=C2C=C(Cl)/C(=N/O)C=C/2Cl)cc1` was tested, and the survivor count [1] was 0 of 6.

With `C=CCc1ccccc1NC(=O)NCCCl` the survivor count [3] was 3 of 6.

For `CCN(CC)CCCC(C)Nc1ncnc2ncc3c(c12)CCCC3` (configuration not stated), the survivor count (dose: 400.0 mg/kg/injection, schedule: Q04DX002 (ip), vehicle: saline) was 0 of 3.
